Assay results as given in publication PMC7819943, “Rice protein-binding microarrays: a tool to detect cis-acting elements near promoter regions in rice”.
Some of the results follow.

The chains behind the UniProt entries cited, without tags or fusion partners.
UniProt Q0JBA9, entry or part of it: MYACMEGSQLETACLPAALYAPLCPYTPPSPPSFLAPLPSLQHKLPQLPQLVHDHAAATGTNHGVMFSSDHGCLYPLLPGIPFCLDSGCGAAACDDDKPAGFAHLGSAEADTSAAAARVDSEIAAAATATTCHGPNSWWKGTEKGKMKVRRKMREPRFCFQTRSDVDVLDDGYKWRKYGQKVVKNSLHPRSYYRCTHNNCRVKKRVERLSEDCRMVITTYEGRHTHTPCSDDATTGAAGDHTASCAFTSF

Each sequence was assayed against OsWRKY34 (Oryza sativa, UniProt Q0JBA9 1-250) (assay: protein-binding microarray (RPBM); PBS, 2% BSA, 51.3 ng/ul salmon testes DNA, 50 uM zinc acetate, 200 nM TF, 25 C, 1 h; high values mean tight binding). Settings: protein: recombinant; tags: N-terminal polyhistidine and DsRed monomer fusion (pET32a); label: CyDye5-dUTP incorporated in the synthesized complementary strand; 3' TTTTT single-stranded linker to array surface; dsDNA, one strand shown.
Procedure, shortened: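 An Axon 4000B scanner gave the binding signal as per-feature fluorescence intensity in arbitrary units. This followed washing of a custom Agilent array that had been incubated for 1 h at 25 °C with 200 nM protein in PBS, 2% BSA, salmon testes DNA and 50 µM zinc acetate. The proteins were transcription factors fused at the N-terminus to polyhistidine and DsRed, expressed in E. coli BL21-CodonPlus and purified on Ni–NTA.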

Sequence	binding signal
ACTCTTATTGTCTTCACGTTGTCTTATCAGCCACGATCAACGGAGTCACCTAGTGCAG	17900 fluorescence intensity (a.u.)
TTTCGCCGCGTCGCGCGCATTGTCCGCCATTGCTTTCGTTCGGAGTCACCTAGTGCAG	9530 fluorescence intensity (a.u.)
CTATTGCATTACTGATTAGACCATTTATTTTTAATTATTTCGGAGTCACCTAGTGCAG	9540 fluorescence intensity (a.u.)
AACACAAATTCGAATTTTTTTCCTTTATTTCTCTATTTTTCGGAGTCACCTAGTGCAG	12700 fluorescence intensity (a.u.)
TATTCTGACCTCCCGCCTATGCTTTGTTTTCCTTGCTAGCCGGAGTCACCTAGTGCAG	8060 fluorescence intensity (a.u.)
AGTTGTTAGAGTCTTTTGTTGTGTTTAACAGTGGTAAGAACGGAGTCACCTAGTGCAG	8430 fluorescence intensity (a.u.)
ATCACCCCACCATTGCCTCGACGATCTCCTCTCTCGGCGCCGGAGTCACCTAGTGCAG	11100 fluorescence intensity (a.u.)
ACTTATTATCTTACATGATCATATGCTTCTGTTCCCTTTTCGGAGTCACCTAGTGCAG	9320 fluorescence intensity (a.u.)
CTTCTGCCGCGCCACCAACCATCCATCGCTGACGCTTCCACGGAGTCACCTAGTGCAG	10500 fluorescence intensity (a.u.)
ATCAACACATTCGATCCAACTCTTTTATAATCTTTAACTGCGGAGTCACCTAGTGCAG	8520 fluorescence intensity (a.u.)
GGATACTTTGTTTTGTTGGGCCTAAATGGTAAGATGGGCTCGGAGTCACCTAGTGCAG	8240 fluorescence intensity (a.u.)
CTCCGTATGTACCTTTATCACACCGGCGGTTACAACAGGCCGGAGTCACCTAGTGCAG	9200 fluorescence intensity (a.u.)
CCGAATCCGGCCACCCCGCCGCCTCCACGCGCATCACCGCCGGAGTCACCTAGTGCAG	11100 fluorescence intensity (a.u.)
ACACATACTACCAATTAGACCGGCTCACACCAACCATTAACGGAGTCACCTAGTGCAG	10600 fluorescence intensity (a.u.)
CGTCATCCGTGTATGAGTCGGTTTTTAAGTTCGTTTGCTTCGGAGTCACCTAGTGCAG	8170 fluorescence intensity (a.u.)
GTCAAAGTTGTTTTTTGGAGACCGTGCCCTTGTCCAAAACCGGAGTCACCTAGTGCAG	8230 fluorescence intensity (a.u.)
CTAGTGTTCACCTCTCTTCTGCTTCATCTCCTCGATCCATCGGAGTCACCTAGTGCAG	11900 fluorescence intensity (a.u.)
TTAACTAAGCTGTTGTCTTCTCTGCCATCGTTACCAAGTTCGGAGTCACCTAGTGCAG	10200 fluorescence intensity (a.u.)
AATCGCTTTCTCTCTCTTCTTCCTTGCTCTCTCATACAACCGGAGTCACCTAGTGCAG	10200 fluorescence intensity (a.u.)
ATTTGTTTACCAGCATATATCGATCTTCAGTTAAGTTTGACGGAGTCACCTAGTGCAG	9500 fluorescence intensity (a.u.)
TATCTTTCCTTTCTGGTCTGTGTTTTCATGTTCCCTTCTACGGAGTCACCTAGTGCAG	9930 fluorescence intensity (a.u.)
AGCATATCCATCTCCGATTCACAGATTCTTTCTGGAGATCCGGAGTCACCTAGTGCAG	8050 fluorescence intensity (a.u.)
CGCCATGTCAGCTTCATCCTCGCCACGTCCTCCCATGTCACGGAGTCACCTAGTGCAG	10300 fluorescence intensity (a.u.)
CATTAATTTTTCTTGCGAGTTTTATTTTTTGTTTTCTATTCGGAGTCACCTAGTGCAG	11600 fluorescence intensity (a.u.)
CTTGCTATAAATCTGTAGTTCGCTGCTCTTCTTTTTCCTTCGGAGTCACCTAGTGCAG	10300 fluorescence intensity (a.u.)
TTCTCACATGTTTGACCATTCGTCTTATTAAAAATTTTATCGGAGTCACCTAGTGCAG	11100 fluorescence intensity (a.u.)
ACGTAAATAGCAAAAGTTTTTATCAGCTTTTACCATTTTGCGGAGTCACCTAGTGCAG	8200 fluorescence intensity (a.u.)

Some of the entries so far, in markdown.

| Sequence | binding signal |
| --- | --- |
| CTAGTGTTCACCTCTCTTCTGCTTCATCTCCTCGATCCATCGGAGTCACCTAGTGCAG | 11900 fluorescence intensity (a.u.) |
| TTAACTAAGCTGTTGTCTTCTCTGCCATCGTTACCAAGTTCGGAGTCACCTAGTGCAG | 10200 fluorescence intensity (a.u.) |

Single entries from the entries so far.
CGCCATGTCAGCTTCATCCTCGCCACGTCCTCCCATGTCACGGAGTCACCTAGTGCAG | binding signal: 10300 fluorescence intensity (a.u.)
ACACATACTACCAATTAGACCGGCTCACACCAACCATTAACGGAGTCACCTAGTGCAG | binding signal: 10600 fluorescence intensity (a.u.)

Further records

Sequence	binding signal
AGTGCAGAGACTTGTTAATGATTGTAATATTCCTACTACTCGGAGTCACCTAGTGCAG	8760 fluorescence intensity (a.u.)
GATTCCTGAGCTGTACCGATATTCTTGGCCCTGTTCCTATCGGAGTCACCTAGTGCAG	11300 fluorescence intensity (a.u.)
CGTTCTCTTTATTCCTCCCTCTCCTGCTTGTCTCGTTGCGCGGAGTCACCTAGTGCAG	8070 fluorescence intensity (a.u.)
GAAGGACTTCCATTTGACTTCCATGGTGGATTTGTTGGATCGGAGTCACCTAGTGCAG	9280 fluorescence intensity (a.u.)
CTGATTTCCACTCTGAATTGACCTGGTCACCCTGCGATCTCGGAGTCACCTAGTGCAG	8160 fluorescence intensity (a.u.)
CACTCGAACCCGACCCGCCTCGCCGCCGCCGCCACCGAAGCGGAGTCACCTAGTGCAG	8820 fluorescence intensity (a.u.)
TGTTGTTTAGTAATCCTAGTTTGCTTCGGTTCTGTTCCCACGGAGTCACCTAGTGCAG	9850 fluorescence intensity (a.u.)
TTTTTACCTTTATTACTTACATGTGGGAGCCACTTCTATTCGGAGTCACCTAGTGCAG	8880 fluorescence intensity (a.u.)
TGCTAATGTTGATTACATTCACCACTATCACTGGATCAAACGGAGTCACCTAGTGCAG	9430 fluorescence intensity (a.u.)
CTCAATTCCTCATCCTCATCCCACAAAAATTCCCATGTCTCGGAGTCACCTAGTGCAG	8600 fluorescence intensity (a.u.)
TCCTCAACTGAGTACACTTCGCCACTTTACCATTTTCATCCGGAGTCACCTAGTGCAG	11300 fluorescence intensity (a.u.)
AAATATCAACCACATGCTCCTACTTCTATGGAAATTGATTCGGAGTCACCTAGTGCAG	10400 fluorescence intensity (a.u.)
AAATCGTATATTAGTTTTACCGTGGGCCGTAGAAGCTTGACGGAGTCACCTAGTGCAG	8040 fluorescence intensity (a.u.)
ACTAGTATGTACCACATCATGTACTTAGGTTTCTTTTTTACGGAGTCACCTAGTGCAG	10600 fluorescence intensity (a.u.)
ACCTGTTTTTCATGCGTTTTTTATGAGTGATTTTTTTTAACGGAGTCACCTAGTGCAG	11200 fluorescence intensity (a.u.)
CTTTTCGTTTGCAAATACTCCCGATGTTACTAGATTTATCCGGAGTCACCTAGTGCAG	11000 fluorescence intensity (a.u.)
CAATCTCGAGATTCTCCGCTGCTATTATCCCCGATCCAAACGGAGTCACCTAGTGCAG	8140 fluorescence intensity (a.u.)
TTTGTCCTGCCAAAAAATGCATTTTTTCTTTTTTTTTTTCCGGAGTCACCTAGTGCAG	9540 fluorescence intensity (a.u.)
CTCCATGGCCTCAACAAGCTCACAAGCTTCTGCAACCCTGCGGAGTCACCTAGTGCAG	8470 fluorescence intensity (a.u.)
GCTCGTTGTCATCACCTGCTCCAAGCCACGGGGCCTCCTCCGGAGTCACCTAGTGCAG	8410 fluorescence intensity (a.u.)
ATAAGATGAATGGTCAAATGTTAGACAAAAAGTCAACGGCCGGAGTCACCTAGTGCAG	12500 fluorescence intensity (a.u.)
GGACGAACTCGGGTATAGGGCTGGGCGGATTGGGCGTGGGCGGAGTCACCTAGTGCAG	11000 fluorescence intensity (a.u.)
CTTTACTACTTCACATCTGATGGCTGGTGTTGAATTCATTCGGAGTCACCTAGTGCAG	10400 fluorescence intensity (a.u.)
GTCTGCTACCGTACCTGCTCTAGATCTAGTTCTATTTCTCCGGAGTCACCTAGTGCAG	9840 fluorescence intensity (a.u.)
CGCCACCACGTCGCGCACCTTCTCATTGGCCGGAACAAGTCGGAGTCACCTAGTGCAG	10700 fluorescence intensity (a.u.)
GCCCATCGTGCCGAGCTATCCTTCCACATACAGTGCTGGACGGAGTCACCTAGTGCAG	8260 fluorescence intensity (a.u.)
GGCGCAGTTCTTGCTTCACCTGCTTGTTTGTTTGCTTCGCCGGAGTCACCTAGTGCAG	13500 fluorescence intensity (a.u.)
